The supplement of paper PMC10849652
Some of the results follow.

Chains of the proteins cited; added tags and fusions are not shown. Lines headed by an entry give the natural chain unless they say otherwise; changes in a name come on top.
UniProt P08648, whole entry, looked up: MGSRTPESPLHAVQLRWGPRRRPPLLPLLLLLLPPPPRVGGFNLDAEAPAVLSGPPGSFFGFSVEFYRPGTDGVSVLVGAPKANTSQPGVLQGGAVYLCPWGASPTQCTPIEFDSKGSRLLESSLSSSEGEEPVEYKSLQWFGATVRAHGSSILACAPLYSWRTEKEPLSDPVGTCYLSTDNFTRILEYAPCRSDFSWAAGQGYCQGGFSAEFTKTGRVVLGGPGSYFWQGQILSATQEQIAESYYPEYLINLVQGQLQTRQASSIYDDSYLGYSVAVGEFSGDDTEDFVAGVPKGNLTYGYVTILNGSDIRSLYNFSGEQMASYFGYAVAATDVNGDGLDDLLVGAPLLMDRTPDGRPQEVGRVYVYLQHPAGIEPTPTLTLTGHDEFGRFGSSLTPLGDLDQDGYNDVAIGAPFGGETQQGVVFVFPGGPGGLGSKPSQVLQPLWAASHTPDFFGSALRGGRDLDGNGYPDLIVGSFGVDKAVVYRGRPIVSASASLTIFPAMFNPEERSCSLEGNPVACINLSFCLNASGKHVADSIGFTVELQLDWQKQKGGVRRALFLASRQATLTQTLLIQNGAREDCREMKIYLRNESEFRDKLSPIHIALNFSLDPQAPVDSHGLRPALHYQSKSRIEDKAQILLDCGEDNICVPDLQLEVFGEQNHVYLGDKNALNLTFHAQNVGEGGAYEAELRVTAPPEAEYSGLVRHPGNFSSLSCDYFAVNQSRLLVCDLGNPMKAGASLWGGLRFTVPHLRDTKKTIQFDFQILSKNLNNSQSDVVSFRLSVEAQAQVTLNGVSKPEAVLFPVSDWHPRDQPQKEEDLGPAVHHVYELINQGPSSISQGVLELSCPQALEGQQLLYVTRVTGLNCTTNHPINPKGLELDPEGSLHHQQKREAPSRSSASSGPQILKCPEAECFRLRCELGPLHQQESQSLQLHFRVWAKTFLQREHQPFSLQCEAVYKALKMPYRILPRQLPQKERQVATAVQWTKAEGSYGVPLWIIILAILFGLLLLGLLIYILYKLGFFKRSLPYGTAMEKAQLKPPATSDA
UniProt Q86U28: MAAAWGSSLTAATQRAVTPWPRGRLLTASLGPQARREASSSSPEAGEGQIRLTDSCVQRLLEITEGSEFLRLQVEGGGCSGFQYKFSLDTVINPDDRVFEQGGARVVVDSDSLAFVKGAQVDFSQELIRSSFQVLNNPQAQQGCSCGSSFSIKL
UniProt O95251, whole entry, looked up: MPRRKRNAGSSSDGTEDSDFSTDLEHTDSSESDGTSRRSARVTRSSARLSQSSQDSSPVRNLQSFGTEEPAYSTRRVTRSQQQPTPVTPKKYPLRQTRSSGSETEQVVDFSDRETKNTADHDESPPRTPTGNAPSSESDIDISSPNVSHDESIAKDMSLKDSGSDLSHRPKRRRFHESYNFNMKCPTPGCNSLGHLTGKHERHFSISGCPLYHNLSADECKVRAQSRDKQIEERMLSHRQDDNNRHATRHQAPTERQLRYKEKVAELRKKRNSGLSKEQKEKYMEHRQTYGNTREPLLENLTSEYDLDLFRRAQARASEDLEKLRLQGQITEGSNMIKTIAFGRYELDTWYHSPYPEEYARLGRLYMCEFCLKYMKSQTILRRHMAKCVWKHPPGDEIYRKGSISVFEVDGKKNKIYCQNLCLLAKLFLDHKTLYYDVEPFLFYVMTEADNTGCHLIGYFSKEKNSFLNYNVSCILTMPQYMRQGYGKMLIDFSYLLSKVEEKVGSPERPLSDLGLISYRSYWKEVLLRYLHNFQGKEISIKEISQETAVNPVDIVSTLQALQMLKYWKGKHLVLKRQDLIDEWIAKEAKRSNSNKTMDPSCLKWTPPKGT
UniProt Q7Z5L9: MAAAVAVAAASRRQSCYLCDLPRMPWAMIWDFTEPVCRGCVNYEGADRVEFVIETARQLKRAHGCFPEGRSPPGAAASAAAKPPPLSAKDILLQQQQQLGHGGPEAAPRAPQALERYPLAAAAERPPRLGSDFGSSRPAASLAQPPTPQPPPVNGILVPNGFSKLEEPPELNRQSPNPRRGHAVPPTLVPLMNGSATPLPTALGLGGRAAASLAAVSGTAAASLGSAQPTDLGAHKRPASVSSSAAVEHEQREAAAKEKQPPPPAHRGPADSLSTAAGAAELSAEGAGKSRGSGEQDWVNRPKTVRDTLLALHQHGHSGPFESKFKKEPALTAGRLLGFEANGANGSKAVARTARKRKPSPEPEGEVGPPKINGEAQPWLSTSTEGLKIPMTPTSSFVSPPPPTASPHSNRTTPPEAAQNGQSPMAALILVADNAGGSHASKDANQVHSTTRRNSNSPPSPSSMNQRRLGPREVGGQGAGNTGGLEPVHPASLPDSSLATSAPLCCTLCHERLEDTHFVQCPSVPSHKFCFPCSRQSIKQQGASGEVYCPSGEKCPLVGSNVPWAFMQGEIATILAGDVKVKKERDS
UniProt O00180: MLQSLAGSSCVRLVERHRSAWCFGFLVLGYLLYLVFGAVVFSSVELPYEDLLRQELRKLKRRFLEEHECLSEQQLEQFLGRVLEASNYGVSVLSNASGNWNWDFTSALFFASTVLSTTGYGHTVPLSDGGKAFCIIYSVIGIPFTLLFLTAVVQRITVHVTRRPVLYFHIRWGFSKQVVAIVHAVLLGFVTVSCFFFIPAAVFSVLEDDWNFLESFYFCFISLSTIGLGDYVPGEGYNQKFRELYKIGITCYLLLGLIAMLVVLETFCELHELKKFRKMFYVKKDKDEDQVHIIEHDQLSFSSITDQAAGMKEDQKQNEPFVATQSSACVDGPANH
UniProt Q13572: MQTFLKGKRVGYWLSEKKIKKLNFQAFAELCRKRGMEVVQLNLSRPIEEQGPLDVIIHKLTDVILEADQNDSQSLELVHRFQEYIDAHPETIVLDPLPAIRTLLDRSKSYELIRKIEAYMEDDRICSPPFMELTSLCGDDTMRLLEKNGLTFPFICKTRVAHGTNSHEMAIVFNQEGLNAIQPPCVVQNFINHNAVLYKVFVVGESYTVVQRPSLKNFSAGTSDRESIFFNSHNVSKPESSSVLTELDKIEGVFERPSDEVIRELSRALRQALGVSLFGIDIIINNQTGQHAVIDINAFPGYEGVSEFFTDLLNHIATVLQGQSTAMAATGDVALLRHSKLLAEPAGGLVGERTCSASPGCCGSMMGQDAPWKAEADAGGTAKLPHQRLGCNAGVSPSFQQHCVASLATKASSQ
UniProt Q9UL03, whole entry, looked up: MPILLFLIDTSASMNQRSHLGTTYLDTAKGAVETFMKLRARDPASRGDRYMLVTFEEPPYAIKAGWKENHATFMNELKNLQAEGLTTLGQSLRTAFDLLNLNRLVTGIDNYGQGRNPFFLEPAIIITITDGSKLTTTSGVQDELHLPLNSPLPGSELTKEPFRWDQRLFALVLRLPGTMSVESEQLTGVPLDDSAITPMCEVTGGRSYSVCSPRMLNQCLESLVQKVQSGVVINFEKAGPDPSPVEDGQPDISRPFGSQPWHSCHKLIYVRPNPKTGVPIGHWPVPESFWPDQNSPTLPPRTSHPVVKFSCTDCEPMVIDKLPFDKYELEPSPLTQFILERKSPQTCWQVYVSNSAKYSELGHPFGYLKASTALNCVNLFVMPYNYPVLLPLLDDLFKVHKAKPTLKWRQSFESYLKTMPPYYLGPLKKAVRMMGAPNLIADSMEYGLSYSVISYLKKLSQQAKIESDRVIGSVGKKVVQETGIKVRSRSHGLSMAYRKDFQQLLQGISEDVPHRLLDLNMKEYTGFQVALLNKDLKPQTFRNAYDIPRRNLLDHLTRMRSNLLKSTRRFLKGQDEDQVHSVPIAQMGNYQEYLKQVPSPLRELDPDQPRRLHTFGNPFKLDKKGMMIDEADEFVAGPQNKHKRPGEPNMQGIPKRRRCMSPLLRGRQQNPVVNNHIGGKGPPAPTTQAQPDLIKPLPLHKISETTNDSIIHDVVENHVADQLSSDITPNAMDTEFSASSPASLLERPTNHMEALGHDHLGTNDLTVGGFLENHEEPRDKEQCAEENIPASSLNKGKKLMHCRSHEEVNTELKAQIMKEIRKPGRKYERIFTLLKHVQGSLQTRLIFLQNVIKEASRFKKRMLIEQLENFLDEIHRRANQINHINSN
UniProt Q9H1K1: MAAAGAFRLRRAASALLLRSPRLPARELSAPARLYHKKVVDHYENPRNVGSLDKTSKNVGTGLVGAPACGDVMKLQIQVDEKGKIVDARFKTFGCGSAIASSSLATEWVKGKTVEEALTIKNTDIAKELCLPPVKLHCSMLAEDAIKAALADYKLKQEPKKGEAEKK
UniProt Q96SI1: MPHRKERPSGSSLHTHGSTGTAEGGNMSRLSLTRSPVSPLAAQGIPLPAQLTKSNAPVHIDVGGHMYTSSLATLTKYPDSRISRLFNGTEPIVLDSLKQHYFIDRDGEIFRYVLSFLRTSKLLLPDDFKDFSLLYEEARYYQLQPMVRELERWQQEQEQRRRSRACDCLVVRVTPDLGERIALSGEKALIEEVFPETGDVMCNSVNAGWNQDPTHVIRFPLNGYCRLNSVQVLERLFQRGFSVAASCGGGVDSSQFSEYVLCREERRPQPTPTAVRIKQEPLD

Legend:
Assay in all cases: log2 fold change, soluble protein after heating vs DMSO (PISA); higher = thermal stabilisation; K562 lysate, 10 uM; active = over 0.2 and 3.5 SD of the protein, either way, in both replicates (recomputed)
[1] = compound: C1=CC=C(C=C1)[C@H](COC2=CC3=C(C=C2)NC(=O)N3)NC(=O)C4=CC=CN(C4=O)CC5=CC(=C(C=C5)F)F
In short: (§1)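 Thermal stability, expressed as log-two fold change relative to solvent controls, is given from duplicates. Crude K562 extract in PBS pH 7.4 with 1 mM MgCl2, at 1 mg/mL protein, was treated with 10 μM compound for 30 min and heated in aliquots for 3 min across 48°C-58°C. After pooling, adjustment to 0.5% NP-40 at 4°C and centrifugation at 21,000xg for 90 min, supernatant protein was measured by TMTpro 16plex LC-MS/MS with channel sums equalised.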

[2] = compound: CC1=C(SC2=C1C(=N[C@H](C3=NN=C(N32)C)CC(=O)N)C4=CC=C(C=C4)Cl)C
In short: as §1

[3] = compound: CC1=C2C(=CC=C1)N=C(N(C2=O)C3=CC=CC=C3C)CN4C=NC5=C(N=CN=C54)N
In short: as §1

[4] = compound: Cc1sc2c(c1C)C(c1ccc(Cl)cc1)=N[C@@H](CC(=O)OC(C)(C)C)c1nnc(C)n1-2
In short: as §1

[5] = compound: c1ccc([C@@H]2C[C@H]2NC2CCNCC2)cc1
In short: as §1

Measured: log2 fold change

ITGA5 (UniProt P08648)
inactive: [1] 0.004 | [2] 0.01 | [3] 0.009 | [4] -0.011 | [5] -0.013

ISCA2 (UniProt Q86U28)
inactive: [1] 0.002 | [2] -0.102 | [3] -0.02 | [4] 0.022 | [5] -0.031

KAT7 (UniProt O95251)
inactive: [1] -0.039 | [2] 0.001 | [3] -0.065 | [4] -0.058 | [5] -0.104

IRF2BP2 (UniProt Q7Z5L9)
inactive: [1] 0.023 | [2] -0.018 | [3] 0 | [4] 0.023 | [5] -0.009

IQSEC2 (UniProt Q5JU85)
inactive: [1] 0.027 | [2] 0.061 | [3] 0.041 | [4] 0.182 | [5] 0.014

KCNK1 (UniProt O00180)
inactive: [1] -0.17 | [2] 0.134 | [3] 0.201 | [4] 0.155 | [5] -0.115

ITPK1 (UniProt Q13572)
inactive: [1] 0.03 | [2] -0.071 | [3] -0.019 | [4] 0.046 | [5] 0.054

INTS6 (UniProt Q9UL03)
inactive: [1] 0.078 | [2] 0.052 | [3] 0.05 | [4] -0.051 | [5] 0.05

ISCU (UniProt Q9H1K1)
inactive: [1] -0.001 | [2] 0.003 | [3] -0.053 | [4] 0.036 | [5] 0.014

KCTD15 (UniProt Q96SI1)
inactive: [1] 0.031 | [2] -0.018 | [3] -0.039 | [4] 0.029 | [5] -0.015
